# Measured values published in PubChem BioAssay AID2685 (National Center for Advancing Translational Sciences (NCATS), 2010).
# Among all 320,000 compounds or so, about 2,100 (0.66%) were called active. This list was built around the results that the source calls inconclusive (neither active nor inactive); the mix of calls is not that of the screen. Calls come from the whole dose curve; as a rule, active = well fitted inhibition curve with a large enough effect in the signal ratio, with a control signal flat (not every such curve was filed as active); inconclusive = small, poorly fitted or top-dose-only effect, or effect the other way, or a change in a side signal; inactive = flat fitted curve, though single readings scatter; the % refers to the signal ratio. A potency beside an inconclusive call is a rough fit, not a confirmed value.
# Assay: qHTS Assay for Lipid Storage Modulators in Drosophila S3 Cells
# Conditions: BODIPY lipid droplet fluorescence, 18-24 h, cells fed with added oleic acid; lipid storage change, negative = inhibition: at 46.1 µM (top of the series) unless noted
# From the text: NIH Molecular Libraries Probe Production Centers Network [MLPCN] NIH Chemical Genomics Center [NCGC] MLPCN Grant: 1 R03 MH085686-01 Assay Submitter (PI): Beller, Mathias; Max-Planck-Institut fur Biophysikalische Chemie NCGC Assay Overview: Storing lipids as a reservoir for energy or the anabolism of elementary metabolites is a common feature of probably all cells and is conserved from bacteria to humans. The universal cellular lipid storage organelle is the so-called lipid storage droplet (LD). Although ubiquitous, LDs share a simple structure composed of a hydrophobic core that harbors the storage lipids, which is shielded by a droplet-specific phospholipid monolayer to which proteins are attached. The current model of LD biogenesis involves an incorporation of the lipid core into the membrane leaflets of the endoplasmic reticulum (ER) followed by a subsequent budding-like maturation of a LD, which ultimately pinches off. Once released, LD volume can increase by localized lipogenesis or fusion of existing droplet. Storage lipids are re-mobilized enzymatically by lipase activity. Lipase regulation in the adipocyte is heavily studied and involves multiple components including catecholamine signaling, the LD-associated proteins Perilipin and comparative gene identification (CGI-58) and at least two lipases named hormone sensitive lipase (HSL) and adipocyte triglyceride lipase (ATGL). LD regulation outside of the adipocyte is poorly understood and only few components are known. However, there is an urgent need to learn more about ectopic fat depots as mislocalized storage of lipids, for example in the liver or muscle, is an eminent health problem associated with insulin resistance or the metabolic syndrome. We developed a laser-scanning cytometer assay to enable 1,536-well screening and combined the results of the small molecules screen with an RNAi database based on lipid storage.
# Triacsin C (Sigma-Aldrich T-4540), an inhibitor of long-chain fatty acyl CoA synthetase that blocks synthesis of triglycerides, was used as a positive control for lipid under-storage. A total of 23 nL of compound solution of different concentrations were transferred to the assay plates using a Kalypsys pin tool equipped with a 1,536-pin array containing 10-nL slotted pins (FP1S10, 0.457-mm diameter, 50.8 mm long; V&P Scientific). One microliter of oleic acid (400 uM) was added, and the plate was lidded with stainless steel rubber gasket lined lids containing pinholes. […] Fluorescence was detected by excitation of the fluorophores with a 488-nm laser on an Acumen Explorer (TTP Lab Tech). The total intensity in channel 2 (500-530 nm) reflected lipid droplet accumulation. Cells were detected using channel 3 (575-640 nm) with 5-um width and 100-um depth filters. The ratio of the number of objects in PMT channel 2 over the number of objects in PMT channel 3 was also calculated. Percent activity was computed relative to an internal control (100% inhibited lipid droplet deposition due to the presence of 20 uM Triacsin C), which was added to 32 wells/plate.
# % is set by controls: 0 for no effect and ±100 for the full control effect; potency is the fitted concentration of half-maximal effect.
Compound,Potency,"lipid storage change, negative = inhibition"
CCOc1ccc2oc(C(=O)N3CCN(Cc4ccccc4)CC3)c(C)c2c1,"inconclusive: 29.1 µM [activator, single point]",
CCn1c(C)c(C(C)=O)c(N2CCCC2)nc1=S,,inconclusive: -35%
COc1cc(C(=O)N/N=C/c2ccc(OC(=O)c3ccccc3)c(OC)c2)ccc1O,"inconclusive: 0.92 µM [activator, full curve]",
C=CCSc1nnc(-c2ccncc2)n1-c1ccc(OCC)cc1,"inconclusive: 29.1 µM [rising, single point]",
CC(C)CCOc1ccc(C(=O)NCC(c2cccs2)N2CCOCC2)cc1 (stereo not drawn),,inconclusive: 34.8%
Cn1c(SCC(=O)NCc2ccc3c(c2)OCO3)nnc1-c1cc2ccccc2cc1O,,inconclusive: -83.8%
Cc1ccc(NCC(=O)Nc2ccc(Br)cc2)cc1C,,inconclusive: 69.6%
CC(C)Nc1cc(N2CCCC2)ccc1[N+](=O)[O-],,inconclusive: 5.98%
O=C(NCc1ccccc1)C1CCCN(c2nc3ccsc3c(=O)s2)C1 (stereo not drawn),,inconclusive: 0.147%
CCn1c(=O)c(=O)[nH]c2cc(C(=O)NC3CC3)ccc21,"inconclusive: 0.164 µM [falling, full curve, poor fit]",
CSc1nnc(-c2ccncc2)n1/N=C/c1cn(-c2ccccc2)nc1-c1ccc(Cl)cc1,,inconclusive: -5.4%
COC(=O)c1cccc(NC(=O)CCCOc2cccc(C)c2)c1,,inconclusive: -4.05%
CC(=O)N1CCc2c(sc(NC(=O)C3CCCN3S(=O)(=O)c3cccs3)c2C#N)C1 (stereo not drawn),,inconclusive: 4.39%
COc1ccc(C2c3c(oc4ccccc4c3=O)C(=O)N2c2ccc(C)cn2)cc1OC (stereo not drawn),"inconclusive: 7.31 µM [activator, partial curve]",
COC(=O)C(C)Sc1nnc(Cc2cc(=O)[nH]c(=O)[nH]2)n1-c1cccc(OC)c1 (stereo not drawn),,inconclusive: -31.9%
O=C(CCN1C(=O)c2ccccc2S1(=O)=O)NCc1ccccc1,,inconclusive
CCC(=O)Nc1ccc(C(=O)NNC(=O)c2cc(OC)c(OC)c(OC)c2)cc1,"inconclusive: 25.9 µM [activator, single point]",
O=C(Nc1ccc(Cl)cc1)Nc1cccnc1,,inconclusive: 233%
COc1ccc(-c2nnnn2C)cc1S(=O)(=O)NCc1ccccc1,,inactive: 7.78%

Compound,Potency,"lipid storage change, negative = inhibition"
CCCNC(=O)c1onc(CSc2cccc(OC)c2)c1C(=O)NCCC,,inconclusive: 14.6%
Cc1cccc(N2C(=O)C(O)=C(C(=O)c3cccs3)C2c2cccc(Oc3ccccc3)c2)n1 (stereo not drawn),,inconclusive: 3.15%
CCOC(=O)N1CCN(C(=O)COC(=O)CSc2cc(C)c(Br)cc2C)CC1,,inconclusive: -1.19%
CCc1ccc(C(=O)CSc2nc(C)cc(=O)[nH]2)cc1,,inconclusive: 33.9%
CCNc1ccc(S(=O)(=O)N2CCCCC2)cn1,,inconclusive: 3.49%
COc1ccccc1NC(=O)CSc1n[nH]c(-c2cccnc2)n1,,inconclusive: 50.2%
O=C(CNC(=O)c1ccccc1F)OC(C(=O)Nc1cc(C(F)(F)F)ccc1Cl)c1ccccc1 (stereo not drawn),,inconclusive: 2.18%
COC(=O)C1(C(F)(F)F)C2C=CC(C2)N1S(=O)(=O)c1ccc(C)cc1 (stereo not drawn),,inconclusive: 57.8%
NC(=O)NC(CC(=O)N1CCc2ccccc2C1)c1ccc(Cl)cc1 (stereo not drawn),"inconclusive: 14.6 µM [falling, partial curve, poor fit]",
CCN1CCN(C(=S)Nc2ccc([N+](=O)[O-])cc2)CC1,,inconclusive: 11.8%
Cc1ccc(S(=O)(=O)N(C)C)cc1NC(=O)c1sccc1Cl,,inconclusive: 0.732%
CCOC(=O)c1cnc2cc(-c3ccc(Br)cc3)nn2c1C,,inconclusive: -21.7%
CSC1=NCCN1C(=O)C12CC3CC(CC(C3)C1)C2,active: 1.3 µM,
COc1ccc(CCNC(=O)CO/N=C/c2cc3c(cc2Br)OCO3)cc1OC,,inconclusive: -15.7%
Cc1cc(C(=O)O)sc1C,,inconclusive: 29.6%
COc1ccc(C(=O)NNS(=O)(=O)c2ccccc2)cc1OC,,inconclusive: 24.6%
COc1ccc(-n2c(SCC(=O)N3CCN(c4ccccc4)CC3)nc3c(c2=O)SCC3)cc1,"inconclusive: 1.16 µM [activator, full curve, poor fit]",
CSCC[C@H](NC(=O)Cc1c(C)c2cc3c4c(oc3cc2oc1=O)CCCC4)C(=O)O,"inconclusive: 29.1 µM [falling, single point]",
CCCCn1c(N)c(N(CCC(C)C)C(=O)c2ccc(C)o2)c(=O)[nH]c1=O,,inconclusive: -4.52%

# Record cards, as listed above.
# CCOC(=O)c1cnc2cc(-c3ccc(Br)cc3)nn2c1C reads lipid storage change, negative = inhibition: inconclusive: -21.7%
# CCn1c(C)c(C(C)=O)c(N2CCCC2)nc1=S reads lipid storage change, negative = inhibition: inconclusive: -35%
# COc1ccc(C2c3c(oc4ccccc4c3=O)C(=O)N2c2ccc(C)cn2)cc1OC (stereo not drawn) reads Potency: inconclusive: 7.31 µM [activator, partial curve]
